Measurements reported in PubChem BioAssay AID602196 (INSERM, 2012)
Test: 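Genes whose knock-down alters cisplatin killing of lung cancer cells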. Cells: human A549 lung cancer cells. Reagent: siRNA pair against human genes. Duration: 48 h transfection before cisplatin; time from cisplatin to read-out not stated. Challenge: cisplatin at a dose killing half of control-siRNA cells; exact dose and duration not given. Read-out: 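Cisplatin cell death as a shift from the 50% death seen with control siRNA; siRNAs toxic or growth-blocking alone scored 0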. Reading the numbers: two-siRNA summed score (-2 to +2): higher = both siRNAs protect from cisplatin killing; -2 means both sensitise; mean protection from cisplatin (shift in death): higher = protection from cisplatin killing. Call rule: 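Each siRNA scores 0 if harmful alone by LDH or WST-1, otherwise +1 if it reduces and -1 if it increases cisplatin killing; a gene is active when both siRNAs agree (sum +2 or -2)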. Calls: active = both siRNAs shift cisplatin killing the same way; inactive = no consistent shift, or siRNA harmful alone.
The deposit covers about 23,000 reagents; shown is a random part of them. Of all reagents, 455 (2%) were called active. 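Active includes both protection and sensitisation; some change values fall well beyond the stated -50 to +50 range.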 Unmarked entries are inactive. Further read-outs or replicates are left out here. No sequences are given here. Not stated in the record: the amount of reagent.

target	PubChem SID	two-siRNA summed score (-2 to +2)	mean protection from cisplatin (shift in death) (%)
GUSBP14 (GeneID 11039)	SID131504764	0	-4.5
GUSBP14 (GeneID 11039)	SID131520085	1	8.6
ZNF551 (GeneID 90233)	SID131510673	0	3.5
ITFG1 (GeneID 81533)	SID131506678	0	-1.1
LEMD3 (GeneID 23592)	SID131511468	0	4.4
CELA2A (GeneID 63036)	SID131503084	0	-14.1
ARMH4 (GeneID 145407)	SID131504041	0	-6.7
S100A10 (GeneID 6281)	SID131510653	0	3.5
HIGD1B (GeneID 51751)	SID131519253	1	4.2

Reformatted: 3 of the entries above
| target | PubChem SID | two-siRNA summed score (-2 to +2) | mean protection from cisplatin (shift in death) (%) |
| --- | --- | --- | --- |
| ITFG1 (GeneID 81533) | SID131506678 | 0 | -1.1 |
| LEMD3 (GeneID 23592) | SID131511468 | 0 | 4.4 |
| CELA2A (GeneID 63036) | SID131503084 | 0 | -14.1 |

Continued:
target	PubChem SID	two-siRNA summed score (-2 to +2)	mean protection from cisplatin (shift in death) (%)
LOC441339	SID131521121	1	12.3
PDCD7 (GeneID 10081)	SID131511676	0	4.6
TAS2R46 (GeneID 259292)	SID131502040	-1	-5.7
FEZ1 (GeneID 9638)	SID131519386	1	5.2
LOC402665	SID131512547	0	5.6
LOC138255	SID131516020	0	10.1
ZNF473 (GeneID 25888)	SID131512806	0	5.9
CCDC82 (GeneID 79780)	SID131501622	-1	-8.6
ASB11 (GeneID 140456)	SID131522451	1	18.7
HILPDA (GeneID 29923)	SID131507118	0	-0.5
LOC441498	SID131519954	1	8.1
LONRF3 (GeneID 79836)	SID131517557	0	13.8
LZTS1 (GeneID 11178)	SID131502471	-1	-2
PGM2 (GeneID 55276)	SID131520585	1	10.4
